Publication PMC5846053

T1: BD-PevD1 (PevD1 without the signal peptide sequence in pGBKT7) (Verticillium dahliae) (UniProt G2WWV6)
T1 sequence: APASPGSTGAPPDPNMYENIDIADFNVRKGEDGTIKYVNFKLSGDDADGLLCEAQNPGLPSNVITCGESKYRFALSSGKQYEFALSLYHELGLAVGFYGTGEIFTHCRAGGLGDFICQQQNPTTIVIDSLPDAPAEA


Key:
[1] = molecular target: T1, BD-PevD1 (PevD1 without the signal peptide sequence in pGBKT7) (Verticillium dahliae); experiment: two-hybrid; Matchmaker Gold system, Y2H gold yeast; PevD1 in pGBKT7 (BD), Nbnrp1 and fragments in pGADT7 (AD); growth on SD/-Ade/-His/-Leu/-Trp with Aureobasidin A and x-α-gal
[2] = molecular target: GST-Nbnrp1ΔN (Nicotiana benthamiana); experiment: pull-down; GST pull-down: 6 × His tagged PevD1 and GST-fused protein mixed with GST affinity resin at 4°C for 4 h, washed with PBS, eluted with PBS, 20 mM GSH; Western blot with anti-His and anti-GST; both purified
[3] = molecular target: GST-Nbnrp1 (Nicotiana benthamiana); experiment: as above

| Molecule | binding [1] | binding [2] | binding [3] |
| --- | --- | --- | --- |
| AD-Nbnrp1ΔC (residues 1-199, N-rich domain) in pGADT7 (Nicotiana benthamiana) (domain or fragment) | no binding | – | – |
| AD-Nbnrp1ΔN (residues 200-332, DCD domain) in pGADT7 (Nicotiana benthamiana) (domain or fragment) | binds | – | – |
| 6 × His tagged PevD1 (protein, UniProt G2WWV6 19-155) APASPGSTGAPPDPNMYENIDIADFNVRKGEDGTIKYVNFKLSGDDADGLLCEAQNPGLPSNVITCGESKYRFALSSGKQYEFALSLYHELGLAVGFYGTGEIFTHCRAGGLGDFICQQQNPTTIVIDSLPDAPAEA | – | binds | binds |

These are yes or no findings as the source states them, for the method shown. A result given as binding can be weak or reduced; the word gives no strength. Where a sequence is shown, tags or fusion partners need not be part of it.
